The text below walks through data of paper PMC4345279.

By UniProt entry, the sequences of proteins in these tests, tags left out. Where a name states a change or a piece, a line headed by the entry shows the natural chain unless it says otherwise. Chains listed by the source or under a name are the forms on record and can include a tag or linker.
UniProt Q9VCG6: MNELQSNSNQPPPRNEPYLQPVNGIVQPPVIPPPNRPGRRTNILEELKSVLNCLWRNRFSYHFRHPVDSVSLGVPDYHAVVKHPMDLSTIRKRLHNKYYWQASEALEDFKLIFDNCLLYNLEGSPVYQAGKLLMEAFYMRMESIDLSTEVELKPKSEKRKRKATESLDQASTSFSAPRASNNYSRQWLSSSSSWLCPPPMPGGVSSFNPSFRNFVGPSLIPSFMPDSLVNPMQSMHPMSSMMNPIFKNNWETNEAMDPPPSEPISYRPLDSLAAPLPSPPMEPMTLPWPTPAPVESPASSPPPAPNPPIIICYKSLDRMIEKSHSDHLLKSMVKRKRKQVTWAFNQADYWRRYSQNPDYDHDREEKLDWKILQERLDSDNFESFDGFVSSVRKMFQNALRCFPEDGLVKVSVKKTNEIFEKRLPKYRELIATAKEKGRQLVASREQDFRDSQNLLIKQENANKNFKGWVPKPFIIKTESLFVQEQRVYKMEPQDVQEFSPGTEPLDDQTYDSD
UniProt P21187: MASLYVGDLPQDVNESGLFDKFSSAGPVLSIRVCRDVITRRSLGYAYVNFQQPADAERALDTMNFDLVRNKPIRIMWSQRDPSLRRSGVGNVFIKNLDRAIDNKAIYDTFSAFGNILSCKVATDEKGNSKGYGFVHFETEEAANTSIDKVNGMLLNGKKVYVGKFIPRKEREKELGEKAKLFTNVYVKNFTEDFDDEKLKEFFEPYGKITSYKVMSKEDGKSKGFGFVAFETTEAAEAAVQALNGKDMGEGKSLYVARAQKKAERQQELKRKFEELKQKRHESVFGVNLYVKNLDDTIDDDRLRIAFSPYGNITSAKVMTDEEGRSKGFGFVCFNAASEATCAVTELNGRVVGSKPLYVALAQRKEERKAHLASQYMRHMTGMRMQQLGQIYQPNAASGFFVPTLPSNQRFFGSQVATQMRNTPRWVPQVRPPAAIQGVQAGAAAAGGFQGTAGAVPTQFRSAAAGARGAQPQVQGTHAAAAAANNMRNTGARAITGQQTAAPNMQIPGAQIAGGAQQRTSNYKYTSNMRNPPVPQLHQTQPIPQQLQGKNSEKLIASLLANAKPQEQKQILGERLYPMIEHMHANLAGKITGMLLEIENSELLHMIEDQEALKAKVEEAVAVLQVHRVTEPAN
myosin heavy chain (P05661, form named): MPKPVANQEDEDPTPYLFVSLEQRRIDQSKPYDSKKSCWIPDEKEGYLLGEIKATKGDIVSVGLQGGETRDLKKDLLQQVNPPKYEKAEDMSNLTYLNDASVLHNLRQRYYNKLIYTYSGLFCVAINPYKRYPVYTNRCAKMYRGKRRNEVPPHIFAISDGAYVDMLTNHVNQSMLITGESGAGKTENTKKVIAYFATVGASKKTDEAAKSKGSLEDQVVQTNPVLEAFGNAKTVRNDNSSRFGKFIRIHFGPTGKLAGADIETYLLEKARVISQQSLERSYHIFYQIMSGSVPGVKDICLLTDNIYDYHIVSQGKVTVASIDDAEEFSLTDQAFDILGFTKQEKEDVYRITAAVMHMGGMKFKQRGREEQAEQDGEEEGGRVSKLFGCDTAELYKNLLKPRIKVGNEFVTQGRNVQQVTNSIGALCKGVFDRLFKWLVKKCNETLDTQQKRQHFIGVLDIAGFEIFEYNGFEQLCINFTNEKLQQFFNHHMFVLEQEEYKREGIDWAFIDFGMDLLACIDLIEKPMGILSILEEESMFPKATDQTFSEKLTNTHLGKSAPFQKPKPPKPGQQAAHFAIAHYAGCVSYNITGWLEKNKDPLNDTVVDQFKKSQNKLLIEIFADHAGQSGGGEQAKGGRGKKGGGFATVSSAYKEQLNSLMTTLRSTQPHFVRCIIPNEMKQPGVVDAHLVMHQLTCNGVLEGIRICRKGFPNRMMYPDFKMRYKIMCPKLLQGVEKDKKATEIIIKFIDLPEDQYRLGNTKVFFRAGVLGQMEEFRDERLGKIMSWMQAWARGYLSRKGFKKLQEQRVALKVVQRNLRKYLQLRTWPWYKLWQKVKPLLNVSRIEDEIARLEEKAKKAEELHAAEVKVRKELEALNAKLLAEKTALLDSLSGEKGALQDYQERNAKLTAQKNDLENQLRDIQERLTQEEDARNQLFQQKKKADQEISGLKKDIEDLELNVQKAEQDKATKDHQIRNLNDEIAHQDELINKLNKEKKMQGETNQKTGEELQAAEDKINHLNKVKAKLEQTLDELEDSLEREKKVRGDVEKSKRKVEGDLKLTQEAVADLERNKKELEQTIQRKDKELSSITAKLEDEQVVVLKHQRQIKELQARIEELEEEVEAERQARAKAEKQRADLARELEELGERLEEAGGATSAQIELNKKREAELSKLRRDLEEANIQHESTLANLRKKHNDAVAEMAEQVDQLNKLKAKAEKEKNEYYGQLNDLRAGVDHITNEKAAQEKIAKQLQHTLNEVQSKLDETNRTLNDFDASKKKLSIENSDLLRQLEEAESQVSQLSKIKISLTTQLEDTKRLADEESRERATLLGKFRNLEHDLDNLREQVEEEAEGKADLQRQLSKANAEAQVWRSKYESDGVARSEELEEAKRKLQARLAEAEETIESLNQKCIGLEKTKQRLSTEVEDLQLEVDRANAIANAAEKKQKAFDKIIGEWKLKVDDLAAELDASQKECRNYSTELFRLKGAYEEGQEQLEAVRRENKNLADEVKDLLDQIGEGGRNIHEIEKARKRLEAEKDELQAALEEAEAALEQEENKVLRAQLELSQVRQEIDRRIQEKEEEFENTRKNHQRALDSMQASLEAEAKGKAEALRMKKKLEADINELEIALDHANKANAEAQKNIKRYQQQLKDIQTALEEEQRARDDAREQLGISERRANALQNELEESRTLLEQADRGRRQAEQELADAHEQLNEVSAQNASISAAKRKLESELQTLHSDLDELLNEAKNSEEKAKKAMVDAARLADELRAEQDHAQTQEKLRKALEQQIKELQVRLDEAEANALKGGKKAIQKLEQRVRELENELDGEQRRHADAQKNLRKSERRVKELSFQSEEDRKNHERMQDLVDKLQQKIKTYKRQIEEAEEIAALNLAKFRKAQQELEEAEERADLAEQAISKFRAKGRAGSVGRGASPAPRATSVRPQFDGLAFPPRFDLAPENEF
UniProt O97125: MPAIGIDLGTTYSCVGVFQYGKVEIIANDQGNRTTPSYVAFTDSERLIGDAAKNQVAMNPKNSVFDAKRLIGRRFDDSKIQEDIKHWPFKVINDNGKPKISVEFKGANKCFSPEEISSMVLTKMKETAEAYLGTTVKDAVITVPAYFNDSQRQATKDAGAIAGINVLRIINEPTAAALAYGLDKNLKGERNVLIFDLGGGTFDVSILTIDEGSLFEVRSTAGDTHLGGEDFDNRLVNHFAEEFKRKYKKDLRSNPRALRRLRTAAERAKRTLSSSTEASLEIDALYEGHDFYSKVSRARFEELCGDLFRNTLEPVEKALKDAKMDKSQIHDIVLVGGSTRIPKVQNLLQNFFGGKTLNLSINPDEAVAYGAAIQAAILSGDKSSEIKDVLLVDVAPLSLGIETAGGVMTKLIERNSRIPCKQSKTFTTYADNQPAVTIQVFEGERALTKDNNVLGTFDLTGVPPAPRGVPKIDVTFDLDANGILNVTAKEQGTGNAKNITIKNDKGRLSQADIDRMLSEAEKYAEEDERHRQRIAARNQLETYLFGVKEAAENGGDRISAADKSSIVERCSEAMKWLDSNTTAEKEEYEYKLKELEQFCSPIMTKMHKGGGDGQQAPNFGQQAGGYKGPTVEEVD
zipper (Q99323, form named): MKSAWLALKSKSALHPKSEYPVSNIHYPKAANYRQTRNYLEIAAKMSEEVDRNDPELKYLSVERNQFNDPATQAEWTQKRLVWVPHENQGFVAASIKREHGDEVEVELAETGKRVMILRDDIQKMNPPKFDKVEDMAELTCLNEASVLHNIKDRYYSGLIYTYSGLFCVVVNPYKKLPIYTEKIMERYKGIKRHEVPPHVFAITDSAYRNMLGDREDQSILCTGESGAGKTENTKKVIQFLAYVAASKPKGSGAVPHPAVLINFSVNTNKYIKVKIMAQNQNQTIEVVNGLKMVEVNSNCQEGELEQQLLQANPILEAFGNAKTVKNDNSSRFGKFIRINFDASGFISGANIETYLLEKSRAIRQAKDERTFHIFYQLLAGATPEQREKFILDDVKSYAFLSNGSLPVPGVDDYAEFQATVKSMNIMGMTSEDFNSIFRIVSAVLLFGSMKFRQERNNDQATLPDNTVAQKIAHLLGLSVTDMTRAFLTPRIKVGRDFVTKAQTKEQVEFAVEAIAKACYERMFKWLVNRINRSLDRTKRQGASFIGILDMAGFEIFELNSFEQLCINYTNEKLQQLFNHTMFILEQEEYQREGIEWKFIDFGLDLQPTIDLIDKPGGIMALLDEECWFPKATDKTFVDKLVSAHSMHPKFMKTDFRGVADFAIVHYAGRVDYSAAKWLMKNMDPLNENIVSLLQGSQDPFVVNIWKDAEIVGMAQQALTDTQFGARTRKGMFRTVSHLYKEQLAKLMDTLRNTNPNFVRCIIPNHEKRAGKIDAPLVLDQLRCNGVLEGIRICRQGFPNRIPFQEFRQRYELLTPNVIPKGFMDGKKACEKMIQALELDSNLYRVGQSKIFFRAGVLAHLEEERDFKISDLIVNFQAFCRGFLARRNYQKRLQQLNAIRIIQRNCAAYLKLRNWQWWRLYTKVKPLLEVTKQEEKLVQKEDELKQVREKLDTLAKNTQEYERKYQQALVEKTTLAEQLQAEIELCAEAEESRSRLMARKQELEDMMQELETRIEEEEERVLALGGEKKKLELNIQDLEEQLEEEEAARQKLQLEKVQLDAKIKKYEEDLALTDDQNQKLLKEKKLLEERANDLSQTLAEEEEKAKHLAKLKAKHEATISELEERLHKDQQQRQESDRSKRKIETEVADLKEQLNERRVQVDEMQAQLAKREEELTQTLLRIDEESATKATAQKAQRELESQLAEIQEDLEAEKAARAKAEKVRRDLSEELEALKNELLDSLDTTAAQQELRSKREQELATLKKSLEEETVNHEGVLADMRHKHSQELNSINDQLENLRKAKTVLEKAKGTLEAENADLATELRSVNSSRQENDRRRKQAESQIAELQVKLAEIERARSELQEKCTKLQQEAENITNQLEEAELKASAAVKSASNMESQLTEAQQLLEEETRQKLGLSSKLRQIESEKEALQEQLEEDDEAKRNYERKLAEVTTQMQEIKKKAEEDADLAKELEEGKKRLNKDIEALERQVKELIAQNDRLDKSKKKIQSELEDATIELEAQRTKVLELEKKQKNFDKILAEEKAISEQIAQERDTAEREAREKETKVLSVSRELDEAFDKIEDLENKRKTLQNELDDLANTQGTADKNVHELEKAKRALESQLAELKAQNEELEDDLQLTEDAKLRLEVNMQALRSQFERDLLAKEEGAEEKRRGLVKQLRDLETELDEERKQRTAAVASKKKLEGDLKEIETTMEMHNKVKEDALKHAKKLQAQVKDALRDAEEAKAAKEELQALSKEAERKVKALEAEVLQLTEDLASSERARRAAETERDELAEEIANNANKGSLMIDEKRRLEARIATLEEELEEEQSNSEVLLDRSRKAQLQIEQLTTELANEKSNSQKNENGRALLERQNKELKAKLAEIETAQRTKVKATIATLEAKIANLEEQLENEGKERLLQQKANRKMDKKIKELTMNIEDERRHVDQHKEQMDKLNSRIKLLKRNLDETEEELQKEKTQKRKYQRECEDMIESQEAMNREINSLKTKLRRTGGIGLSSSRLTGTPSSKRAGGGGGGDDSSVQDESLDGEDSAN

Read-outs that look alike come from different tables or passages of the source. No constants are given. Whether binding was seen depends on the method and setting. In cells and extracts the contact can be indirect. A yes stands for co-enrichment or nearness to the bait. Other partners may have been found.

Experiment [1] deals with tBRD-1 (testis-specifically expressed bromodomain-containing protein-1), endogenous (Drosophila (endogenous in testes)) (UniProt Q9VCG6). Put plainly: affinity purification with mass spectrometry; anti-tBRD-1 antibody cross-linked to Protein A Dynabeads added to wild-type crude testicular lysates (control rabbit IgG), 6 h at 4°C, washed with 1×TNE and BC100, eluted with 0.1 M glycin-HCl pH 2.0; separated by electrophoresis, silver stained, in-gel digestion, LC-MS.

For experiment [2] the target is unchanged. The description is as above. This is another data set of the same source.

For the molecule “poly(A) binding protein (from UniProt P21187 1-634)”, in experiment [1], the binding result is on record as “binds”.
Same read-out and setting: then “myosin heavy chain (from UniProt P05661 1-1962)”, with “binds”; and “heat shock protein 68 (from UniProt O97125 1-635)”, with “binds”.
Still for that read-out and setting: then zipper (from UniProt Q99323 1-2056), with “binds”.

B1: paramyosin (protein, UniProt P35415 1-879)
chain: MSSSQAVRSSKYSYRATSTGPGTADVNIEYIQDLSSLSRLEDKIRLLQDDLEVERELRQRIEREKADLSVQVIQMSERLEEAEGGAEHQFEANRKRDAELLKLRKLLEDVHLESEETTLLLKKKHNEIITDFQEQVEILTKNKARAEKDKAKFQTEVYELLSQIESYNKEKIVSEKHISKLEVSISELNVKIEELNRTVIDISSHRSRLSQENIELTKDVQDLKVQLDTVSFSKSQVISQLEDARRRLEDEDRRRSLLESSLHQVEIELDSVRNQLEEESEARIDLERQLVKANADATSWQNKWNSEVAARAEEVEEIRRKYQVRITELEEHIESLIVKVNNLEKMKTRLASEVEVLIIDLEKSNNSCRELTKSVNTLEKHNVELKSRLDETIILYETSQRDLKNKHADLVRTVHELDKVKDNNNQLTRENKKLGDDLHEAKGAINELNRRLHELELELRRLENERDELTAAYKEAEAGRKAEEQRGQRLAADFNQYRHDAERRLAEKDEEIEAIRKQTSIEIEQLNARVIEAETRLKTEVTRIKKKLQIQITELEMSLDVANKTNIDLQKVIKKQSLQLTELQAHYEDVQRQLQATLDQYAVAQRRLAGLNGELEEVRSHLDSANRAKRTVELQYEEAASRINELTTANVSLVSIKSKLEQELSVVASDYEEVSKELRISDERYQKVQVELKHVVEQVHEEQERIVKLETIKKSLEVEVKNLSIRLEEVELNAVAGSKRIISKLEARIRDLELELEEEKRRHAETIKILRKKERTVKEVLVQCEEDQKNLILLQDALDKSTAKINIYRRQLSEQEGVSQQTTTRVRRFQRELEAAEDRADTAESSLNIIRAKHRTFVTTSTVPGSQVYIQETTRTITE
In the case of B1, the binding entry in experiment [2] is “binds”.

B2: ribonuclear protein at 97D (protein, UniProt Q02926 1-471)
chain: MVKDEPLSDESADVIVLADREEDDICELEHLRKLFIGGLAPYTTEENLKLFYGQWGKVVDVVVMRDAATKRSRGFGFITYTKSLMVDRAQENRPHIIDGKTVEAKRALPRPERESRETNISVKKLFVGGLKDNHDEECLREYFLQFGNVVSVKLLTDKTTGKRRGFAFVEFDDYDAVDKAILKKQHAIKYVHVDVKKSIYNLDKKEKQQPGGLANAIKPSLNQQQQQQGGGQQPPNGNMQAPSFRPPVPPQQAMGPYQQQPPPAPMSAPPPNFNYWGPPPPAMPPYYQQPPPQQMNGWGPYPPPQQNGWNAPPPPPPGAQQWHANQWGCPPPVQQVPPVGAVPPPMGHNGPPPTAPGNWNMPPPVPGAAPPSHQQQSSQQPTPQPNFGTGYQQNYGGGPSKHNNMNANRMNPYSAGPPNSYHTPQPPAYTGYNAGPLPPNGSVPPPTGAKAVGVSNGSVATGGSANSKYRR
Take B2: in experiment [2], the binding result is “binds”.
